The text below walks through data of the supplement of paper PMC8256030.

The structures appear in SMILES notation. Some of the results follow. Repeats in this data set agree poorly, so a single value says little.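 HEK293T cells were given each compound shortly before transfection with a reporter in which red mCherry is followed by the SARS-CoV-2 frameshift element and then GFP in the −1 frame, so GFP appears only after frameshifting.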

For test [1], the system named is SARS-CoV-2 -1 PRF reporter mCherry-FSE-GFP(-1). As to the kind of experiment: mCherry (red) intensity as percent of control; higher = higher upstream reporter expression. The settings on record: 10 µM; 24 h; HEK293T.
For test [2] the test system is unchanged. Nature of the test: percent effect, decrease of GFP/mCherry ratio (-1 PRF reporter) relative to controls; higher = stronger frameshift inhibition. Particulars: 10 µM; 24 h; HEK293T.

On to `C[C@@H](NCCCc1cccc(C(F)(F)F)c1)c1cccc2ccccc12` [cinacalcet], for which the mCherry in test [1] was determined as 148%. In test [2], the percent effect stood at 1.84%.
The corresponding values for `O=C(O)CCn1c2c(c3ccccc31)C[C@H](NS(=O)(=O)c1ccc(F)cc1)CC2` [ramatroban] are 71.2% and 0.865%.
In the same order, the values of `CN(CCc1ccccc1)CCc1ccccc1` [demelverine] are 97.6% and -7.37%.
`COc1c(-c2ccc3cc(NS(C)(=O)=O)ccc3c2)cc(-n2ccc(=O)[nH]c2=O)cc1C(C)(C)C` [Dasabuvir] gave a mCherry in test [1] of 96.4%. Further, in test [2], the percent effect is 0.342%.
In the same order, the values of `CC(C)[C@H](N)C(=O)OCC(CO)OCn1cnc2c(=O)nc(N)[nH]c21` (stereo not given in full) are 99.9% and -1.02%.
`CC1CC(OC(=O)c2ccccc2O)CC(C)(C)C1` (stereo not given) [homosalate] returned a mCherry in test [1] of 102%. Further, the percent effect in test [2] is -2.01%.
In the same order, the values of `CC(C)[N+]1(C)[C@@H]2CC[C@H]1CC(OC(=O)C(CO)c1ccccc1)C2` (stereo not given in full) [Ipratropium·Br] are 104% and -3.76%.
In the same order, the values of `CCC(=O)O[C@@H]1CC(=O)O[C@H](C)C/C=C/C=C/[C@H](O)[C@H](C)C[C@H](CC=O)[C@H](O[C@@H]2O[C@H](C)[C@@H](O[C@H]3C[C@@](C)(O)[C@@H](OC(=O)CC)[C@H](C)O3)[C@H](N(C)C)[C@H]2O)[C@H]1OC` [midecamycin] are 106% and -1.54%.
The corresponding values for `Cc1c2oc3c(C)ccc(C(=O)N[C@@H]4C(=O)N[C@H](C(C)C)C(=O)N5CCC[C@H]5C(=O)N(C)CC(=O)N(C)[C@@H](C(C)C)C(=O)O[C@@H]4C)c3nc-2c(C(=O)N[C@@H]2C(=O)N[C@H](C(C)C)C(=O)N3CCC[C@H]3C(=O)N(C)CC(=O)N(C)[C@@H](C(C)C)C(=O)O[C@@H]2C)c(N)c1=O` are 16.5% and -19.6%.
For the compound `CCOP(=O)(Cc1ccc(C(=O)Nc2ccc(Br)cc2C#N)cc1)OCC` [ibrolipim], the mCherry in test [1] worked out at 55.4%. Moreover, the percent effect in test [2] was -10.7%.
`C#CCN(C)CCCOc1ccc(Cl)cc1Cl` [clorgiline] displayed a mCherry in test [1] of 138%. The percent effect in test [2] worked out at 11.9%.
The corresponding values for `CN1CCN(C2Cc3ccccc3Sc3ccc(Cl)cc32)CC1` (stereo not given) [clorotepine] are 77.6% and -4.46%.
For `O=C(/C=C/c1c(C(=O)O)[nH]c2cc(Cl)cc(Cl)c12)Nc1ccccc1` [gavestinel], in test [1], the mCherry amounted to 102%. Further, the percent effect in test [2] was 1.06%.
The corresponding values for `CC(C)(C(=O)O)c1ccc(C(=O)CCCN2CCC(OC(c3ccccc3)c3ccccc3)CC2)cc1` [carebastine] are 116% and -1.32%.
In the same order, the values of `NS(=O)(=O)c1ccc(NC(=O)OCCO)cc1` [sulocarbilate] are 102% and -1.04%.
In the same order, the values of `NS(=O)(=O)c1cc2c(cc1Cl)NC(c1ccccc1)NC2=O` (stereo not given) [fenquizone] are 71% and -6.3%.
As to `C=C[C@H]1CN2CC[C@H]1C[C@H]2[C@H](O)c1ccnc2ccc(OC)cc12` [Qualaquin], the mCherry in test [1] is 97.2%. Besides, in test [2], the percent effect stood at 1.59%.
The corresponding values for `C(=C\c1ccccc1)/CN1CCN(C(c2ccccc2)c2ccccc2)CC1` are 108% and -0.206%.
The corresponding values for `CC1(S(=O)(=O)O)CC(=O)c2ccccc2C1=O` (stereo not given) [menadione sodium bisulfite] are 96.5% and 1.19%.
The compound `C[C@@H](O)[C@H]1C(=O)N2C(C(=O)O)=C(S[C@@H]3CN[C@H](C(=O)N(C)C)C3)[C@H](C)[C@H]12` [Meropenem] returned a mCherry in test [1] of 81.4%. Besides, the percent effect in test [2] is -2.93%.
In test [1], `C#Cc1cccc(Nc2ncnc3cc(OCCOC)c(OCCOC)cc23)c1` [Erlotinib] returned a mCherry of 54.9%. The percent effect in test [2] was -1.02%.
`CCCC1([C@H](O)C/C=C/[C@H]2[C@H](O)CC(=O)[C@@H]2CCCCCCC(=O)OC)CCC1` [(R)-Butaprost] returned a mCherry in test [1] of 115%. In test [2], the percent effect was -1.64%.
The corresponding values for `CCCCCCCCNC(C)C(O)c1ccc(SC(C)C)cc1` (stereo not given) are 87.7% and -0.0771%.
The corresponding values for `CN(C)C(=O)CCS[C@H](SCCC(=O)O)c1cccc(/C=C/c2ccc3ccc(Cl)cc3n2)c1` [verlukast] are 72.9% and -0.788%.
Consider `CCCCC(CC)CN=C(N)NC(N)=NCCCCCCN=C(N)NC(N)=NCC(CC)CCCC` (stereo not given), for which the mCherry in test [1] is 110%. Further, the percent effect in test [2] was -5.21%.
`CC(C)[C@H](N)C(=O)OCCOCn1cnc2c(=O)nc(N)[nH]c21` [Valaciclovir] returned a mCherry in test [1] of 63.8%. Further, the percent effect in test [2] is -7.23%.
In the same order, the values of `CCN(CC)CCOC(=O)c1ccc(N)cc1Cl` [chloroprocaine] are 96.4% and -0.316%.
With `COc1ccc(C(=O)CCC(=O)O)c2ccccc12` [menbutone], the mCherry in test [1] stood at 80.3%. In addition, the percent effect in test [2] was -0.514%.
The corresponding values for `NC(=O)CC(N)C(=O)O` (stereo not given) are 98% and -2.79%.
In test [1], `NCCCC[C@H](N[C@@H](CCc1ccccc1)C(=O)O)C(=O)N1CCC[C@H]1C(=O)O` [lisinopril] registered a mCherry of 90.8%. In addition, in test [2], the percent effect is -2.4%.
The corresponding values for `C[C@]12CC[C@@H]3c4ccc(O)cc4CC[C@H]3[C@@H]1CC[C@@H]2OP(=O)(O)O` [polyestradiol phosphate] are 123% and -1.57%.
With `CCCCC(=O)O[C@H]1CC[C@H]2[C@@H]3CCc4cc(O)ccc4[C@H]3CC[C@]12C`, the mCherry in test [1] came to 168%. Also, the percent effect in test [2] turned out to be 20.9%.
In turn, `O=C(Nc1ccccc1)c1ccccc1O` gave a mCherry in test [1] of 87.2%. Further, in test [2], the percent effect is -4.58%.
The compound `Cc1c(-c2ccccc2)oc2c(C(=O)OCCN3CCCCC3)cccc2c1=O` [flavoxate] returned a mCherry in test [1] of 104%. In addition, the percent effect in test [2] amounted to 0.217%.
In the same order, the values of `CC(C)c1nc(N(C)S(C)(=O)=O)nc(-c2ccc(F)cc2)c1/C=C/[C@@H](O)C[C@@H](O)CC(=O)O` [Rosuvastatin] are 77.4% and -4.2%.
